Laboratory results taken from the NIST ThermoML archive (doi:10.1016/j.tca.2010.04.013).

Experiments:
[1] = relative permittivity at various frequencies (dimensionless); conditions: 303.15 K; 101.3 kPa; Liquid; Frequency=1 MHz; capacitance measurements at 1 MHz
[2] = relative permittivity at various frequencies (dimensionless); xn = mol fraction of the nth substance listed; conditions: 303.15 K, 101.3 kPa, Liquid, Frequency=1 MHz, capacitance measurements at 1 MHz

CC(=O)N(C)C [N,N-dimethylethanamide]
Conditions | relative permittivity
[1] | 37.72

CC(=O)N(C)C [N,N-dimethylethanamide] + CCO
[2]
Conditions | relative permittivity
x2 = 0 | 37.72
x2 = 0.102 | 36.31
x2 = 0.197 | 35.21
x2 = 0.285 | 34.16
x2 = 0.367 | 32.95
x2 = 0.444 | 32.15
x2 = 0.515 | 31.25
x2 = 0.583 | 30.3
x2 = 0.646 | 29.54
x2 = 0.705 | 28.71
x2 = 0.761 | 27.78
x2 = 0.814 | 27
x2 = 0.864 | 26.2
x2 = 0.912 | 25.49
x2 = 0.957 | 24.64

CC(=O)N(C)C [N,N-dimethylethanamide] + OCCO
[2]
Conditions | relative permittivity
x2 = 0 | 37.72
x2 = 0.106 | 38.21
x2 = 0.204 | 38.76
x2 = 0.294 | 39.26
x2 = 0.378 | 39.64
x2 = 0.455 | 39.95
x2 = 0.527 | 40.24
x2 = 0.594 | 40.45
x2 = 0.656 | 40.59
x2 = 0.715 | 40.62
x2 = 0.769 | 40.51
x2 = 0.821 | 40.49
x2 = 0.87 | 40.46
x2 = 0.916 | 40.29
x2 = 0.959 | 40.06
